Our source for the binding values is publication PMC9998662.

Chains of the proteins cited; added tags and fusions are not shown. Lines headed by an entry give the natural chain unless they say otherwise; changes in a name come on top.
UniProt P70429: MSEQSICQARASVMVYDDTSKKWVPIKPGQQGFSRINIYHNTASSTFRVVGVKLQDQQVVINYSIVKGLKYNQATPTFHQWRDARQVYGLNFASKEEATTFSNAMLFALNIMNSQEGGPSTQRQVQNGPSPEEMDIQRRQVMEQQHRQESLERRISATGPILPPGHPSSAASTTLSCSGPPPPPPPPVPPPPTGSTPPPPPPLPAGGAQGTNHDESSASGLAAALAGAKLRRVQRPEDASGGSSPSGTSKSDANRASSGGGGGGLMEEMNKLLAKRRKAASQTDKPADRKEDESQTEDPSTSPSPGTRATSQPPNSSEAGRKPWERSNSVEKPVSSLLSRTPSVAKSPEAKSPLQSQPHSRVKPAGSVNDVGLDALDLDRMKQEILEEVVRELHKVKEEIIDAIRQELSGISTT

These are yes or no findings as the source states them, for the method shown. In cells and extracts the contact can be indirect. Binding calls can cover weak binding; strength is not graded here. Sequences can lack the tags named with a protein.

In the test the target is T1, MIM-3xFLAG (Mus musculus) (UniProt Q8R1S4).
T1 sequence: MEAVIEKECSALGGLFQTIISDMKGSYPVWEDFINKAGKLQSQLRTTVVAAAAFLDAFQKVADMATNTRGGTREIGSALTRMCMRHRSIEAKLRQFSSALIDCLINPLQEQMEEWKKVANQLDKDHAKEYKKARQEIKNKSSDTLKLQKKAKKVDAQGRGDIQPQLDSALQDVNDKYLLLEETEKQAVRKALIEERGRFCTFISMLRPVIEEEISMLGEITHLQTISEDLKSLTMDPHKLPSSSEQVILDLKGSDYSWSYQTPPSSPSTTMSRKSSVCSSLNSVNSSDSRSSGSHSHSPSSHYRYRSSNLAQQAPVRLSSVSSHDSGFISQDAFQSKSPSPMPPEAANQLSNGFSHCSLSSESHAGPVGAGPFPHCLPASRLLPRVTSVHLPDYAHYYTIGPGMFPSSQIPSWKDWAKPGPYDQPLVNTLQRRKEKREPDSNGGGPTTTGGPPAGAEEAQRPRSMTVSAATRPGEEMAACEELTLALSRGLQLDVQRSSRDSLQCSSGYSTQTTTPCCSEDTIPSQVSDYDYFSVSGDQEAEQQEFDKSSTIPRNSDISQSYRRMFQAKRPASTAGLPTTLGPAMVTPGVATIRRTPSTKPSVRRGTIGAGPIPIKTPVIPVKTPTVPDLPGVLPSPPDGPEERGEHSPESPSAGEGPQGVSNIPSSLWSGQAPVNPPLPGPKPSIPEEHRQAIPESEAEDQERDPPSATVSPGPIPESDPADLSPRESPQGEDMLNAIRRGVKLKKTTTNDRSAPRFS
As to the kind of experiment: co-IP; HEK293T co-transfected with MIM-3xFLAG and EVL constructs; IP with anti-FLAG antibody, Protein A/G beads; IP buffer 10% glycerol, 1% NP-40, 50 mM Tris pH 7.5, 200 mM NaCl, 2 mM MgCl2; overnight at 4°C; western blot. A general note: A western blot detects proteins with antibodies after separation by electrophoresis.

As to “EVL ΔEVH1 mutant (Mus musculus) (domain or fragment)”, the binding result is on record as “no binding”.

In the case of “EVL mutant lacking the proline-rich domain (ΔPRD) (from UniProt P70429)”, the binding result is given as “binds”.
